pKi: −log10 of the molar value. The structures given here were assigned with low confidence; some may be wrong.
Tests used:
amyloid plaques = amyloid plaques (Homo sapiens, UniProt P05067); experiment: Inhibition of ^125I-IMPY binding in AD brain homogenates; settings: read-out: Binding Affinity (Ki vs. ^125I-IMPY)
Excerpt: Moreover, the binding of IMPY appears to be specific for cortical vs. cerebellar tissue from patients with AD, is largely absent in cortex homogenates from elderly control brains, and is fully displaceable by the presumed amyloid imaging agent PIB. […] Thus, inhibition of ^125I-IMPY binding in human AD brain homogenates was taken as an assay for the potential of test compounds to bind to amyloid plaques.
Postmortem brain tissue was obtained and neuropathological diagnosis was confirmed in accordance with the NIA-Reagan Institute Consensus Group criteria. Homogenates were then prepared from dissected gray matter, pooled in phosphate buffered saline and aliquoted into 1-ml portions (100 mg wet tissue/ml), which could be stored at −70° C. for 3-6 months without loss of binding signal.
For the binding assays brain homogenates were incubated with ^125I-IMPY (0.04-0.06 nM diluted in phosphate buffered saline (PBS)) and test compound (10^−5-10^−10 M diluted in PBS containing 0.1% bovine serum albumin (BSA)). […] The bound and free radioactivity was separated by vacuum filtration followed by 2×3 ml washes of PBS. […]
For the binding assays brain homogenates were incubated with ^125I-IMPY (0.04-0.06 nM diluted in PBS) and test compound (10^−5-10^−10 M diluted in PBS containing 0.1% BSA). […] The bound and free radioactivity was separated by vacuum filtration followed by 2×3 ml washes of PBS. […]

The chains behind the UniProt entries cited, without tags or fusion partners. Residues count along the entry.
UniProt P05067, 672-711 limits assumed: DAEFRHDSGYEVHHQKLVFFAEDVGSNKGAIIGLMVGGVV

[1] = Organ distribution in normal mice after i.v. injection; settings: normal male mice

Compound: CNc1ccc(/C=C/c2cc(I)cc(OCCO)c2)cc1
- pKi (amyloid plaques): 8.03
- Biodistribution Brain (% dose/g in brain) ([1]; 2 min): 3.40 ± 0.3 % dose/g
- Biodistribution Brain (% dose/g in brain) ([1]; 60 min): 0.43 ± 0.05 % dose/g

Reference: patent US20080253967A1, “Halo-Stilbene Derivatives And Their Use For Binding And Imaging Of Amyloid Plaques” (priority 2007, published 2008)
